# Assay results reported in patent EP0469084B1 (MOUNT SINAI SCHOOL OF MEDICINE OF THE CITY UNIVERSITY OF …, priority 1989, dated 1995).
# Assay: general procedure: solution-phase peptide synthesis; azide fragment condensation; p-nitrophenyl active esters; DCC/HOBt
Substance,step yield (coupling step),step yield (late stage modification step)
Boc-Asn-Tyr(Bzl)-Cys(PMB)-Asn·OBzl,64%,–
Boc-Glu(OBzl)-Asn-Tyr(Bzl)-Cys(PMB)-Asn·OBzl,81%,–
Boc-Gly-Val-Cys(PMB)-Ser(Bzl)-Leu-Trp(Mts)-Gln-Leu-Glu(OBzl)-Asn-Tyr(Bzl)-Cys(PMB)-Asn·OBzl,82%,–
Boc-Leu-Trp(Mts)-Gln-Leu·OMe,71%,–
Boc-S(Bn)LW(Mts)QL-NHNH2,–,94%
Boc-Ser(Bzl)-Leu-Trp(Mts)-Gln-Leu-Glu(OBzl)-Asn-Tyr(Bzl)-Cys(PMB)-Asn·OBzl,38%,–
Boc-Ser(Bzl)-Leu-Trp(Mts)-Gln-Leu·OMe,85%,–
Z-Gly-Ile-Val-Glu(OBu^t)-Gln-Cys(PMB)-Cys(PMB)-Ala-Gly-Val-Cys(PMB)-Ser(Bzl)-Leu-Trp(Mts)-Gln-Leu-Glu(OBzl)-Asn-Tyr(Bzl)-Cys(PMB)-Asn·OBzl,76%,–

# *: point of attachment. Mts = Cc1cc(C)c(S(=O)(=O)*)c(C)c1; Boc = CC(C)(C)OC(=O)*; Bn = c1ccc(C*)cc1; NHNH2 = NN*
